Measured data: PubChem BioAssay AID652259 (Drosophila RNAi Screening Center, 2013)
In all, the deposit lists about 22,000 reagents; shown is a random part of those that have a named target and a result. Over the whole deposit, 233 (1.1%) were called active. 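Light values are raw, unnormalised plate reads; the ratio scores behind the reporter calls were not deposited.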 A number with no mark means an inactive call. A plus sign joins genes that one reagent is predicted to hit. Not given: the amount of reagent, the time to read-out, the dose of the treatment.

Purpose: 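Knock-downs that push a Wingless-driven reporter up or down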 (primary screen)
Cells: Drosophila clone 8 imaginal disc epithelial cells
Reagents: long dsRNA against Drosophila genes
Conditions: pathway stimulated by co-transfected Wingless expression plasmid
Measurement: 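Dual luciferase reads per well after Wingless plasmid stimulation: reporter firefly light and Renilla control light; activity is firefly divided by Renilla, a ratio not deposited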
Direction: firefly reporter light: higher = more Wg reporter light, before normalisation; Renilla control light: higher = more transfected or surviving cells
Active means: 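a knock-down is a candidate when at least two out of four statistical tests show it departing from its plate mean; one test alone signals a weak candidate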
Meaning of the calls: active = candidate regulator (raises or lowers reporter); inactive = not a candidate

predicted target	PubChem SID	reporter change call, replicate 1	firefly reporter light, replicate 1	firefly reporter light, replicate 2	Renilla control light, replicate 1	Renilla control light, replicate 2
fs(1)Yb	SID104198569		21723		13433	
DAT	SID104187186		7277		2803	
hale	SID104190674		15954		4731	
Wdr33	SID104191954		5612		2807	
CG5569	SID104184306		1779	6396	780	2336
CG6508	SID104182755		2503	5490	1275	3136
NitFhit	SID104188472		6001		2592	
Ino80	SID104194552		13980		2118	
Ino80	SID104195125		13651		1653	
Ino80	SID104195293		8013		1413	
PolA1	SID104196432		1796	4560	960	2220
CG3419 (retired record)	SID104184160		2247	5923	666	2108
CG3419 (retired record)	SID104184161		2956	5773	838	2326
Capr	SID104190138		6941		2443	
Orct	SID104196569		2516	5544	1355	1894
mat	SID104188168		9045		4928	
mat	SID104202200		4.74e5	4.98e5	2.07e5	1.54e5
Spase25	SID104199568		2192	6109	922	1909
CG7059	SID104195979		35656		6626	
sing + Axs	SID104199125		20907		8512	
POLDIP2	SID104191986		7744		2714	
Pcf11	SID104185775		4810		1433	
crm	SID104198546		3093	9692	1968	3157
CG2021	SID104188338		7575		3728	
l(2)09851	SID104184650		4042	8400	962	3139
CG13114	SID104182004		3931	7863	1368	3392
Bmcp	SID104190600		8889		3491	
rho-6	SID104182380		1645	5933	1095	2856
lwr	SID104180620		22183		4550	
Cyp309a2	SID104180318		2649	5027	984	2665
org-1	SID104198602		37318		8644	
Mpcp1	SID104187129		6816		2358	
CG3345	SID104180388		13963		4225	
CG17350	SID104182403		2747	4577	939	1862
Mct1	SID104198473		12456		9585	
CG3655	SID104197468		4509		1555	
CG3655	SID104197973		18420		13628	
CG3655	SID104198269		14025		10339	
CG3655	SID104202078		4.91e5	5.55e5	1.43e5	1.18e5
CG13654	SID104194446		16210		13778	
EDTP	SID104187201		9942		2453	
CG11825	SID104185882		3816	7255	848	1544
rb	SID104198618		24722		14277	
CG8414	SID104186960		5302		1960	
CG8646	SID104187022		8685		1674	
CG40498	SID104187578		18880		10800	
CG12849	SID104183921		3364	8064	770	2592
Vps15	SID104196345		5196		2496	
Cortactin	SID104196404		2955	8097	1617	1792
Cks30A	SID104183084		6573		2368	
FASN1	SID104180060		12987		4149	
CG15084	SID104186307		22556	6.77e5	7341	3.74e5
CG15084	SID104201165		3.71e5	4.10e5	1.59e5	1.36e5
CG34227	SID104186580		7386		2250	
CG34227	SID104186826		6608		2470	
CG32320	SID104201235		7.56e5	7.49e5	3.86e5	2.92e5
CG12909	SID104186016		2593	6441	609	2432
orion	SID104198005		12224		9024	
orion	SID104198006		21768		9504	
CG14302	SID104194573		19052		4067	
Ptpa	SID104180568		10128		4044	
lncRNA:mimi	SID104201176		3.25e5	3.50e5	1.68e5	1.44e5
CG12826	SID104185967		3452	7233	800	2417
Eb1	SID104184808		3364	7777	563	2338
Arp8	SID104199851		3096	8080	1195	2681
CG18659	SID104186576		2761	6787	820	3340
luna	SID104185045		21403		13783	
luna	SID104186455		2548	7905	273	848
luna	SID104187128		4578	16166	1536	5184
Srp72	SID104195592		4066	6994	1561	1653
IA-2	SID104180096		3963	14075	1243	6059
IA-2	SID104180444		12328		4984	
TTLL4A	SID104182320		20288		6553	
Galphai	SID104190960		5174		2742	
CG14767	SID104186292		11349		3576	
Tif-IA	SID104183509		8776		3091	
Tif-IA	SID104183518		2044	8612	898	3813
emp	SID104183811		16387		7312	
emp	SID104184475		12233		4276	
Twdlbeta	SID104187102		5849		2112	
CG6220	SID104186761	Wg reporter activity raised	5942		2582	
dnd	SID104195856		35382		6930	
lcs	SID104200372		16897		9811	
AANATL7	SID104198408		17338		13187	
Lipt1	SID104185392		13952		10598	
hiro	SID104188356		20896		3872	
CG14237	SID104194523		6290		3104	
Past1	SID104196576		16251		3916	
mrn	SID104190705		8353		966	
CG17019	SID104186434		7100		2722	
ND-18	SID104199233		17923		7113	
Mst84Db	SID104192334		20429		4498	
Mst84Db	SID104192390		14758		3896	
